These are yes or no findings as the source states them, for the method shown. For some assays here: Binding seen in cells or lysates may run through a third protein. Some results given as binding are weak or reduced against the parent protein; the word gives no strength. For some assays here: Tags and fused reporters may be left off the sequences shown. Each block holds one binder with its values, some of them ahead of it.
Tests used:
[1] = molecular target: GFP-SEC23a (pEGFP-Sec23A) (UniProt Q15436); assay: co-IP; HEK293T cotransfected with GFP-SEC23a and Myc-TMED9; GFP-Trap magnetic agarose beads, 1 hour at 4°C, two washes with 5x TBST
[2] = molecular target: endogenous TMED9 from kidney epithelial cells (N cells) (not stated (endogenous in kidney epithelial N cells)) (UniProt Q9BVK6); assay: SEC; endogenous protein from kidney epithelial cells (N cells) solubilized in LMNG+CHS
[3] = molecular target: T1, Myc-tagged TMED9 (MYC-TMED9 in pcDNA3.1(+)) (human) (UniProt Q9BVK6); assay: co-IP; HEK293T transfected with Myc-TMED9; lysis in 100 mM NaCl, 5 mM EDTA, 50 mM tris pH 7.5, 1% NP-40; anti-c-MYC magnetic beads, 30 min at room temperature, washes with 5x TBST; blots of endogenous proteins
T1 sequence: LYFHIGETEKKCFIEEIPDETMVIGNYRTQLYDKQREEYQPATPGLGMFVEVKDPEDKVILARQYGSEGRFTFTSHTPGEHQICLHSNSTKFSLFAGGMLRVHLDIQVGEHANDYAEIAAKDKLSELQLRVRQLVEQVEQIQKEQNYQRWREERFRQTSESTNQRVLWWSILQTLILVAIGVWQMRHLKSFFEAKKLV

Chains of the proteins cited; added tags and fusions are not shown.
UniProt Q15436: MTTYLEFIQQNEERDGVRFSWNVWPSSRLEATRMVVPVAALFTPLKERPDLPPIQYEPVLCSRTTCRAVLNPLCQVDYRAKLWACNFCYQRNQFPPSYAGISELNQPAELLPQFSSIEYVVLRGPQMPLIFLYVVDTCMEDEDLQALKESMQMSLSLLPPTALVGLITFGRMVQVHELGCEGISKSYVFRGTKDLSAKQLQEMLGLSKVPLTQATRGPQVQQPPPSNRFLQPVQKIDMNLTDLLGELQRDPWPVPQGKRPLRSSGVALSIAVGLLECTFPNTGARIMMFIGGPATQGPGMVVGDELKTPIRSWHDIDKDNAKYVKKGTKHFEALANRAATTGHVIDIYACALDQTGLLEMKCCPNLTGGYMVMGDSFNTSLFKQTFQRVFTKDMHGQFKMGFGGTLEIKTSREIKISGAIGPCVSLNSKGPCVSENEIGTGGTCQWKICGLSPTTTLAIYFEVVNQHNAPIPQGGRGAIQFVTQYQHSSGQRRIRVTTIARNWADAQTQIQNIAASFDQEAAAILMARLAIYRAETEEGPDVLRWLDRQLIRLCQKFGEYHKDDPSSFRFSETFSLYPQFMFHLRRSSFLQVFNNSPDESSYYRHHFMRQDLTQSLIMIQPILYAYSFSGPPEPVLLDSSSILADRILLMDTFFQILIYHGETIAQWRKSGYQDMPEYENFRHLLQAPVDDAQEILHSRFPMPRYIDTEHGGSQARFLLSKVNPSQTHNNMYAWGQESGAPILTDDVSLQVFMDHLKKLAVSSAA

[4] = molecular target: T2, Myc-tagged TMED9 R223E (MYC-TMED9 R223E in pcDNA3.1(+)) (human) (UniProt Q9BVK6); assay: as above
T2 sequence: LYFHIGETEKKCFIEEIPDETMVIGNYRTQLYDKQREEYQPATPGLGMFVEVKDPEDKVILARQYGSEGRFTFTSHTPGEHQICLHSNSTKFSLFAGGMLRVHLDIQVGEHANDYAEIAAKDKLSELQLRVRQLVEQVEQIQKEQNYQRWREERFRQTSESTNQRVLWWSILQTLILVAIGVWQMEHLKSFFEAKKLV

B1: Myc-tagged TMED9 (MYC-TMED9 in pcDNA3.1(+)) (receptor, UniProt Q9BVK6 38-235)
chain: LYFHIGETEKKCFIEEIPDETMVIGNYRTQLYDKQREEYQPATPGLGMFVEVKDPEDKVILARQYGSEGRFTFTSHTPGEHQICLHSNSTKFSLFAGGMLRVHLDIQVGEHANDYAEIAAKDKLSELQLRVRQLVEQVEQIQKEQNYQRWREERFRQTSESTNQRVLWWSILQTLILVAIGVWQMRHLKSFFEAKKLV
- binding [1]: binds

B3: Myc-tagged TMED9 R223E (MYC-TMED9 R223E in pcDNA3.1(+)) (receptor, UniProt Q9BVK6 38-235)
chain: LYFHIGETEKKCFIEEIPDETMVIGNYRTQLYDKQREEYQPATPGLGMFVEVKDPEDKVILARQYGSEGRFTFTSHTPGEHQICLHSNSTKFSLFAGGMLRVHLDIQVGEHANDYAEIAAKDKLSELQLRVRQLVEQVEQIQKEQNYQRWREERFRQTSESTNQRVLWWSILQTLILVAIGVWQMEHLKSFFEAKKLV
- binding [1]: binds

The remaining lines, values ahead:

- binding [2]: binds
B2: endogenous TMED9 from kidney epithelial cells (N cells) (receptor, UniProt Q9BVK6 38-235)
chain: LYFHIGETEKKCFIEEIPDETMVIGNYRTQLYDKQREEYQPATPGLGMFVEVKDPEDKVILARQYGSEGRFTFTSHTPGEHQICLHSNSTKFSLFAGGMLRVHLDIQVGEHANDYAEIAAKDKLSELQLRVRQLVEQVEQIQKEQNYQRWREERFRQTSESTNQRVLWWSILQTLILVAIGVWQMRHLKSFFEAKKLV

- binding [3]: binds
- binding [4]: binds
B4: endogenous COPB2 (COPI coatomer subunit) (protein, UniProt P35606 1-906)
chain: MPLRLDIKRKLTARSDRVKSVDLHPTEPWMLASLYNGSVCVWNHETQTLVKTFEVCDLPVRAAKFVARKNWVVTGADDMQIRVFNYNTLERVHMFEAHSDYIRCIAVHPTQPFILTSSDDMLIKLWDWDKKWSCSQVFEGHTHYVMQIVINPKDNNQFASASLDRTIKVWQLGSSSPNFTLEGHEKGVNCIDYYSGGDKPYLISGADDRLVKIWDYQNKTCVQTLEGHAQNVSCASFHPELPIIITGSEDGTVRIWHSSTYRLESTLNYGMERVWCVASLRGSNNVALGYDEGSIIVKLGREEPAMSMDANGKIIWAKHSEVQQANLKAMGDAEIKDGERLPLAVKDMGSCEIYPQTIQHNPNGRFVVVCGDGEYIIYTAMALRNKSFGSAQEFAWAHDSSEYAIRESNSIVKIFKNFKEKKSFKPDFGAESIYGGFLLGVRSVNGLAFYDWDNTELIRRIEIQPKHIFWSDSGELVCIATEESFFILKYLSEKVLAAQETHEGVTEDGIEDAFEVLGEIQEIVKTGLWVGDCFIYTSSVNRLNYYVGGEIVTIAHLDRTMYLLGYIPKDNRLYLGDKELNIISYSLLVSVLEYQTAVMRRDFSMADKVLPTIPKEQRTRVAHFLEKQGFKQQALTVSTDPEHRFELALQLGELKIAYQLAVEAESEQKWKQLAELAISKCQFGLAQECLHHAQDYGGLLLLATASGNANMVNKLAEGAERDGKNNVAFMSYFLQGKVDACLELLIRTGRLPEAAFLARTYLPSQVSRVVKLWRENLSKVNQKAAESLADPTEYENLFPGLKEAFVVEEWVKETHADLWPAKQYPLVTPNEERNVMEEGKDFQPSRSTAQQELDGKPASPTPVIVASHTANKEEKSLLELEVDLDNLELEDIDTTDINLDEDILDD

Reference: publication PMC11414720
